Data as given in PubChem BioAssay AID1259425 (University of Nebraska Medical Center, 2018)
Here is a random part of about 14,000 reagents tested. Not all columns of the deposit are shown. The record does not give: the time to read-out.

- Test: 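Find knockdowns that reproduce the gene expression pattern seen when KSR1 is lost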 (primary screen)
- Cell system: HCT116 human colon cancer cells
- Reagents: siRNA pool against human genes, 50 nM siRNA
- Measurement: 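After 50 nM siRNA pool, branched-DNA assay measures six marker transcripts per well, minus blank, normalised to the geometric mean of two housekeeping transcripts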
- Direction: BNIP3L mRNA: higher = more BNIP3L transcript after knockdown

gene knocked down | PubChem SID | BNIP3L mRNA, set 1
ZNF529 | SID364001909 | 0.737
TDP2 | SID364000238 | 0.0897
OTUD5 | SID364000388 | 0.117
CENPM | SID364002713 | 0.114
KYNU | SID363994992 | 0.0693
VPS4A | SID363998369 | 0.0835
SCRN1 | SID363999093 | 0.124
CAD | SID363995329 | 0.102
ITGAM | SID363991948 | 0.067
DLX1 | SID364004904 | 0.0946
DNAJC14 | SID364003946 | 0.0497
PRSS27 | SID364003718 | 0.21
SLC48A1 | SID364000574 | 0.0873
DRAP1 | SID363997252 | 0.108
GNMT | SID364001286 | 0.126
YIF1A | SID364001718 | 0.156
NDUFB2 | SID363995518 | 0.0797
ZDHHC4 | SID364000785 | 0.13
OAS1 | SID363993706 | 0.102
SOD1 | SID363991785 | 0.206
ACTR5 | SID364003113 | 0.161
EIF2AK2 | SID363993917 | 0.119
GCSH | SID363995462 | 0.0497
TPR | SID363994411 | 0.109
MAN1A1 | SID363996776 | 0.0702
TDO2 | SID363996544 | 0.0979
TMEM51 | SID364000713 | 0.0605
MIIP | SID364002225 | 0.0809
ERLEC1 | SID363999658 | 0.234
LHB | SID363992179 | 0.125
HIVEP3 | SID364002827 | 0.26
PIGA | SID363993809 | 0.0708
CDKL2 | SID363995003 | 0.073
GHRH | SID364001997 | 0.0394
GPATCH8 | SID364005346 | 0.136
KTN1 | SID363995926 | 0.134
KPNA3 | SID363993465 | 0.0936
LRRC27 | SID364005329 | 0.105
DGKA | SID363992622 | 0.197
SCN11A | SID363998604 | 0.0645
RECQL5 | SID363995256 | 0.0742
RERE | SID363998051 | 0.107
ARHGAP6 | SID363992465 | 0.0625
GPR75 | SID363997562 | 0.152
DDX18 | SID363997543 | 0.119
C21orf91 | SID364000322 | 0.0733
MEF2C | SID363993577 | 0.117
OAT | SID363991607 | 0.116
KIAA1614 | SID364005184 | 0.0958
CEACAM8 | SID363993032 | 0.046

Individual results from the entries so far:
Result of SCRN1 [SID363999093] under “BNIP3L mRNA, set 1”: 0.124
For “BNIP3L mRNA, set 1”, HIVEP3 [SID364002827] reads 0.26
